Experimental data reported in article PMC10100970.
The exact form of at least one protein or probe is not confirmed. No signal at the amounts used counts as a negative.

Test system: BysR (Burkholderia sp. strain JP2-270)
Test: EMSA
Details: EMSA/gel shift binding buffer (Beyotime GS005, composition and pH not stated), 20 min at room temperature in darkness, 6% native polyacrylamide gel, 100 V 4 h; recombinant protein; label: 5'-Cy5 on strand 1; letters put together from the description

Sequence	binding result
CCTCTGTTCAGTTCGATGCGAAACCGCGTGCGGGGACGACGGCGGCGGCCAAGCCGCGGTCGCATTGAGTGGCGATCGTTACCAATGCCCCTGCAAGAAGCTGAAACGTCCATTTCAGTCATTGAGCGTTGCTGGGTGAAAACGTGCTGCCGCCGAATGCACTGAAGGCCGGAACTGGAAAACCCGGCACCGGCCCGGAGCGGGCACGTTCCCGGCGGATTCAACGAAAAAATCACGATGAAAAAATGAAACTATCCTTTCCATTGAATTTTATCCACGAATACCCCAGCCGCGTATGATAGCGGCGATTTAAAATATCTGCATTTATCCTGTAATTAGTTTTTTAGCCACGCCGCTTGCAGACCAAAAATCAACAAATCTGCAAGCCGTTCACGAACAAAATTCTGGCAGGCCAGATAAATCTGGCCTTTGTTTACCACGAAATTTTGTAATAGTCACCCGAGCACCGCATACCATGGATTTTCGTCCAAGAGGCCTTATTCGAGAGAAGAATCGGCGATTTTCATCACGTC (double strand) [probe 3 (ambR1 promoter -160 to -692)]	binds
CGATTTTCATCACGTCACCACCGCTCACCGACGTGGCCTCAAGCACTTTCCTCCGGACATTGTTTCGATTTGATAAACGATCGATTCAATCTTCGTGATGGAAAAGCACAATATTCGCCGCCTACTTTCGGCAGCCCATTGTCGATTACACCTTCAGGCGATAAAAAT (double strand) [probe 1 (ambR1 promoter -677 to -844)]	no binding
CTCCTTGTTTCCTTGTTGTGCGTGCTTGAGGACGGCGGCGCAACGCCAGCGCGGGCGAGCCGGCGCGGTTTGCGCGGCGCGCGTTTCGTCGCGCGTTCTCGCATTGCACGCGCCGATGTGTTCGGCTCGCGCGAAACGGCGGCGCGCCGTGCTCCTCTGTTCAGTTCGATGCGAAACCGCGTGCGGGGACGACGGCGGCGGCCAAGCCGCGGTCGCATTGAGTGGCGATCGTTACCAATGCCCCTGCAAGAAGCTGAAACGTCCATTTCAGTCATTGAGCGTTGCTGGGTGAAAACGTGCTGCCGCCGAATGCACTGAAGGCCGGAACTG (double strand) [probe 2 (ambR1 promoter -7 to -336)]	no binding
